Test results reported in the supplement of paper PMC8728848.
The list shows a part of the results.

What was measured:
Test in all cases: glycan array binding signal (z-score within array); higher = stronger binding
Conditions in all cases: glycan notation: IUPAC condensed, linker removed
GlcNAc(b1-3)Man = target: GlcNAc(b1-3)Man
Procedure, shortened: (§1)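 Glycan array data were curated from 3228 arrays in the Consortium for Functional Glycomics database and kept only where the protein sequence was available. Glycan names were converted to IUPAC-condensed notation, and columns mapping to the same glycan were averaged. The binding signal is a within-array Z-score, averaged across arrays of the same protein sequence at different concentrations or buffers and across linkers. Negative Z-scores can be read as non-binding.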

[1] = target: GlcNAc(b1-3)[GlcNAc(b1-4)][GlcNAc(b1-6)]GlcNAc
Procedure, shortened: as §1

[2] = target: GlcNAc(b1-3)[GlcNAc(b1-6)]Gal(b1-4)GlcNAc
Procedure, shortened: as §1

[3] = target: GlcNAc(b1-3)[GlcNAc(b1-6)]GalNAc
Procedure, shortened: as §1

[4] = target: GlcNAc(b1-4)Gal(b1-4)GlcNAc
Procedure, shortened: as §1

GlcNAc(b1-4)GlcNAc = target: GlcNAc(b1-4)GlcNAc
Procedure, shortened: as §1

[5] = target: GlcNAc(b1-4)GlcNAc(b1-4)GlcNAc
Procedure, shortened: as §1

[6] = target: GlcNAc(b1-4)GlcNAc(b1-4)GlcNAc(b1-4)GlcNAc(b1-4)GlcNAc
Procedure, shortened: as §1

[7] = target: GlcNAc(b1-4)GlcNAc(b1-4)GlcNAc(b1-4)GlcNAc(b1-4)GlcNAc(b1-4)GlcNAc
Procedure, shortened: as §1

[8] = target: GlcNAc(b1-4)[GlcNAc(b1-6)]GalNAc
Procedure, shortened: as §1

[9] = target: GlcNAc(b1-6)Gal(b1-4)GlcNAc
Procedure, shortened: as §1

GlcNAc(b1-6)GalNAc = target: GlcNAc(b1-6)GalNAc
Procedure, shortened: as §1

[10] = target: GlcNAc6S(b1-3)Gal(b1-4)GlcNAc
Procedure, shortened: as §1

Kdn(a2-3)Gal(b1-3)GalNAc = target: Kdn(a2-3)Gal(b1-3)GalNAc
Procedure, shortened: as §1

Kdn(a2-3)Gal(b1-3)GlcNAc = target: Kdn(a2-3)Gal(b1-3)GlcNAc
Procedure, shortened: as §1

Kdn(a2-3)Gal(b1-4)Glc = target: Kdn(a2-3)Gal(b1-4)Glc
Procedure, shortened: as §1

Kdn(a2-3)Gal(b1-4)GlcNAc = target: Kdn(a2-3)Gal(b1-4)GlcNAc
Procedure, shortened: as §1

[11] = target: Kdn(a2-3)Gal(b1-4)[Fuc(a1-3)]GlcNAc
Procedure, shortened: as §1

Kdn(a2-6)Gal(b1-4)GlcNAc = target: Kdn(a2-6)Gal(b1-4)GlcNAc
Procedure, shortened: as §1

[12] = target: Man(a1-2)Man(a1-2)Man(a1-3)Man
Procedure, shortened: as §1

[13] = target: Man(a1-2)Man(a1-2)Man(a1-6)[Man(a1-3)]Man
Procedure, shortened: as §1

Man(a1-2)Man(a1-3)Man = target: Man(a1-2)Man(a1-3)Man
Procedure, shortened: as §1

[14] = target: Man(a1-2)Man(a1-3)[Man(a1-2)Man(a1-6)]Man
Procedure, shortened: as §1

[15] = target: Man(a1-2)Man(a1-3)[Man(a1-2)Man(a1-6)]Man(a1-6)[Man(a1-2)Man(a1-2)Man(a1-3)]Man
Procedure, shortened: as §1

[16] = target: Man(a1-2)Man(a1-3)[Man(a1-2)Man(a1-6)]Man(a1-6)[Man(a1-2)Man(a1-2)Man(a1-3)]Man(b1-4)GlcNAc(b1-4)GlcNAc
Procedure, shortened: as §1

[17] = target: Man(a1-2)Man(a1-3)[Man(a1-6)]Man(a1-6)[Man(a1-2)Man(a1-3)]Man(b1-4)GlcNAc(b1-4)GlcNAc
Procedure, shortened: as §1

[18] = target: Man(a1-2)Man(a1-6)[Man(a1-3)]Man(a1-6)[Man(a1-2)Man(a1-2)Man(a1-3)]Man
Procedure, shortened: as §1

[19] = target: Man(a1-2)Man(a1-6)[Man(a1-3)]Man(a1-6)[Man(a1-2)Man(a1-2)Man(a1-3)]Man(b1-4)GlcNAc(b1-4)GlcNAc
Procedure, shortened: as §1

Man(a1-3)[Man(a1-6)]Man = target: Man(a1-3)[Man(a1-6)]Man
Procedure, shortened: as §1

[20] = target: Man(a1-3)[Man(a1-6)]Man(a1-6)[Man(a1-2)Man(a1-3)]Man(b1-4)GlcNAc(b1-4)GlcNAc
Procedure, shortened: as §1

[21] = target: Man(a1-3)[Man(a1-6)]Man(a1-6)[Man(a1-3)]Man
Procedure, shortened: as §1

[22] = target: Man(a1-3)[Man(a1-6)]Man(a1-6)[Man(a1-3)]Man(b1-4)GlcNAc(b1-4)GlcNAc
Procedure, shortened: as §1

[23] = target: Man(a1-3)[Man(a1-6)]Man(b1-4)GlcNAc(b1-4)GlcNAc
Procedure, shortened: as §1

[24] = target: Man(a1-3)[Man(a1-6)]Man(b1-4)GlcNAc(b1-4)[Fuc(a1-6)]GlcNAc
Procedure, shortened: as §1

Man(a1-6)Man = target: Man(a1-6)Man
Procedure, shortened: as §1

Man(b1-4)GlcNAc = target: Man(b1-4)GlcNAc
Procedure, shortened: as §1

MurNAc(b1-4)GlcNAc = target: MurNAc(b1-4)GlcNAc
Procedure, shortened: as §1

Neu5Ac(a2-3)Gal = target: Neu5Ac(a2-3)Gal
Procedure, shortened: as §1

B1: PX14379D-pdi-530-26-530 (Parabacteroides distasonis) (protein)
chain: DETVYDKLPADDFGQSTAELNALIGNSHNTMKKFWTEYMHLSECSGSMAVTPTRRGGDWYDGGQYREIYMHTWTSQTSRVKSAWKAATEAIGTCNEAIRKLQNSEILTEEEKAQDVADLRGVRAFWIYVMMDYWGNIPLLTEFHPTDKVFPGNSSRQEVFDWLIQEVEEIKDICPPATTENYGSFTQGAAYSLLAKLYLNAEAWGVTFSGNAYQKVIDNCDKVMAMGYILEPNWKDNFSVTNENSKEAILAATFSSSDTGNDGNVKNELHNNTLHYKDYLSLGITASGTWNGICAQPEYVRLFDEEDARLDGTFLTGLMIDKSTGKPIMTDHNNELNHTIDVNMIPGMEYDGTNWSAVEQHDGARCFKWEFASDLTSSMGNDFHIFRLADIYLMKAEALLRGGGSVSEATALVNTIRERGYGNSDHNYATVTLKEVQLERRLELAWEVYSRQDDIRFGCFTTGMWPQSNCERKADDYLKLLPVSQDAWQVNPNLKQNPGYAAFSK
glycan array binding signal (z-score) (GlcNAc(b1-3)Man): 0.193
glycan array binding signal (z-score) [1]: 1.15
glycan array binding signal (z-score) [2]: 0.025
glycan array binding signal (z-score) [3]: -0.295
glycan array binding signal (z-score) [4]: -0.445
glycan array binding signal (z-score) (GlcNAc(b1-4)GlcNAc): 0.044
glycan array binding signal (z-score) [5]: -0.355
glycan array binding signal (z-score) [6]: -1.09
glycan array binding signal (z-score) [7]: -0.189
glycan array binding signal (z-score) [8]: -0.589
glycan array binding signal (z-score) [9]: 0.646
glycan array binding signal (z-score) (GlcNAc(b1-6)GalNAc): 0.12
glycan array binding signal (z-score) [10]: 0.56
glycan array binding signal (z-score) (Kdn(a2-3)Gal(b1-3)GalNAc): -0.548
glycan array binding signal (z-score) (Kdn(a2-3)Gal(b1-3)GlcNAc): -0.752
glycan array binding signal (z-score) (Kdn(a2-3)Gal(b1-4)Glc): 1.04
glycan array binding signal (z-score) (Kdn(a2-3)Gal(b1-4)GlcNAc): 0.132
glycan array binding signal (z-score) [11]: 0.342
glycan array binding signal (z-score) (Kdn(a2-6)Gal(b1-4)GlcNAc): -0.328
glycan array binding signal (z-score) [12]: -0.399
glycan array binding signal (z-score) [13]: 0.299
glycan array binding signal (z-score) (Man(a1-2)Man(a1-3)Man): 1.14
glycan array binding signal (z-score) [14]: 0.011
glycan array binding signal (z-score) [15]: -0.971
glycan array binding signal (z-score) [16]: -0.057
glycan array binding signal (z-score) [17]: -1.26
glycan array binding signal (z-score) [18]: -0.013
glycan array binding signal (z-score) [19]: -0.518
glycan array binding signal (z-score) (Man(a1-3)[Man(a1-6)]Man): -0.539
glycan array binding signal (z-score) [20]: -0.447
glycan array binding signal (z-score) [21]: 0.476
glycan array binding signal (z-score) [22]: -0.474
glycan array binding signal (z-score) [23]: -0.339
glycan array binding signal (z-score) [24]: -0.773
glycan array binding signal (z-score) (Man(a1-6)Man): 1.65
glycan array binding signal (z-score) (Man(b1-4)GlcNAc): -1.02
glycan array binding signal (z-score) (MurNAc(b1-4)GlcNAc): -1.1
glycan array binding signal (z-score) (Neu5Ac(a2-3)Gal): -0.656
